± gives the standard deviation of the averaged measurements. Values are relative to the signal before dosing, not to a vehicle control; the signal also falls without drug.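 Labels refer to human fibroblasts, largely primary: uterine (C12385, HUF), lung (H6013), bone (Hs27A), adrenal (HADF), skin (WS1), plus mammary HMF and breast cancer-associated Hs343T. Cancer lines are basal-like or mesenchymal-like triple-negative breast cancer. The paper counts as hits responses shifting over 3x the replicate standard deviation. The tissue of the other fibroblasts is not given here.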
System: MDAMB468
Experiment: relative JC-1 red fluorescence (viability) vs pre-drug, coculture with fibroblast (fraction); higher = more viable cancer cells
Method: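 JC-1 labelled TNBC cells cocultured 1:1 (1,500 cells each) with CellTrace Violet stained primary or stromal fibroblasts in 384-well plates in FluoroBrite medium, treated with one of 42 anticancer drugs at 0.1, 1, 10 or 100 uM. JC-1 red fluorescence (mitochondrial integrity in cancer cells only) was read by plate reader every 8 h for 72 h. Values are normalised to each well's pre-drug value. The stock of one drug was tenfold lower, so its dose labels may be too high.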

CO[C@@]12[C@H](COC(N)=O)C3=C(C(=O)C(C)=C(N)C3=O)N1C[C@@H]1N[C@@H]12 [Mitomycin C]
relative JC-1 red fluorescence
Conditions | 8 h | 16 h | 24 h | 32 h | 40 h | 48 h | 56 h | 64 h | 72 h
10 µM, coculture fibroblast: C12385 | 0.901 ± 0.0024 | 0.841 ± 0.013 | 0.699 ± 0.011 | 0.57 ± 0.015 | 0.471 ± 0.014 | 0.454 ± 0.019 | 0.404 ± 0.0099 | 0.371 ± 0.011 | 0.357 ± 0.016
10 µM, coculture fibroblast: H6013 | 0.879 ± 0.02 | 0.8002 ± 0.0025 | 0.693 ± 0.035 | 0.616 ± 0.063 | 0.533 ± 0.067 | 0.521 ± 0.073 | 0.475 ± 0.071 | 0.446 ± 0.07 | 0.381 ± 0.071
10 µM, coculture fibroblast: H6019 | 0.841 ± 0.013 | 0.7148 ± 0.00094 | 0.602 ± 0.021 | 0.48 ± 0.031 | 0.397 ± 0.022 | 0.373 ± 0.024 | 0.339 ± 0.022 | 0.326 ± 0.017 | 0.323 ± 0.018
10 µM, coculture fibroblast: H6076 | 0.9434 ± 0.0084 | 0.9054 ± 0.0068 | 0.788 ± 0.016 | 0.742 ± 0.023 | 0.633 ± 0.03 | 0.583 ± 0.025 | 0.518 ± 0.027 | 0.481 ± 0.026 | 0.526 ± 0.025
10 µM, coculture fibroblast: H6231 | 0.837 ± 0.018 | 0.935 ± 0.027 | 0.821 ± 0.022 | 0.7401 ± 0.00096 | 0.618 ± 0.023 | 0.583 ± 0.038 | 0.502 ± 0.047 | 0.474 ± 0.052 | 0.457 ± 0.058
10 µM, coculture fibroblast: HADF | 0.865 ± 0.014 | 0.804 ± 0.046 | 0.706 ± 0.038 | 0.648 ± 0.031 | 0.567 ± 0.018 | 0.552 ± 0.0075 | 0.50539 ± 0.00039 | 0.482 ± 0.0052 | 0.414 ± 0.0046
10 µM, coculture fibroblast: HCFa | 0.877 ± 0.0087 | 0.769 ± 0.028 | 0.676 ± 0.024 | 0.585 ± 0.011 | 0.484 ± 0.015 | 0.469 ± 0.023 | 0.424 ± 0.024 | 0.396 ± 0.023 | 0.333 ± 0.021
10 µM, coculture fibroblast: HCPF | 0.895 ± 0.031 | 0.884 ± 0.14 | 0.839 ± 0.0094 | 0.832 ± 0.038 | 0.707 ± 0.065 | 0.659 ± 0.066 | 0.608 ± 0.084 | 0.592 ± 0.072 | 0.591 ± 0.075
10 µM, coculture fibroblast: HHSteC | 0.893 ± 0.0093 | 0.819 ± 0.014 | 0.742 ± 0.026 | 0.673 ± 0.018 | 0.5967 ± 0.0013 | 0.601 ± 0.003 | 0.528 ± 0.011 | 0.496 ± 0.016 | 0.429 ± 0.018
10 µM, coculture fibroblast: HMF | 0.826 ± 0.011 | 0.902 ± 0.044 | 0.792 ± 0.014 | 0.722 ± 0.028 | 0.579 ± 0.064 | 0.51 ± 0.087 | 0.455 ± 0.086 | 0.428 ± 0.095 | 0.422 ± 0.093
10 µM, coculture fibroblast: HPFa | 0.953 ± 0.018 | 0.903 ± 0.03 | 0.877 ± 0.031 | 0.773 ± 0.014 | 0.728 ± 0.046 | 0.747 ± 0.042 | 0.668 ± 0.05 | 0.657 ± 0.048 | 0.579 ± 0.044
10 µM, coculture fibroblast: HUF | 0.908 ± 0.015 | 0.8115 ± 0.0063 | 0.675 ± 0.013 | 0.524 ± 0.025 | 0.449 ± 0.031 | 0.425 ± 0.036 | 0.374 ± 0.029 | 0.357 ± 0.036 | 0.342 ± 0.038
10 µM, coculture fibroblast: Hs5 | 0.811 ± 0.08 | 0.881 ± 0.12 | 0.818 ± 0.052 | 0.705 ± 0.039 | 0.581 ± 0.05 | 0.522 ± 0.069 | 0.488 ± 0.06 | 0.453 ± 0.06 | 0.484 ± 0.061
10 µM, coculture fibroblast: Hs27A | 0.823 ± 0.025 | 0.749 ± 0.018 | 0.66189 ± 7e-05 | 0.6146 ± 0.0022 | 0.5696 ± 0.0032 | 0.566 ± 0.0069 | 0.519 ± 0.0097 | 0.498 ± 0.013 | 0.425 ± 0.0094
10 µM, coculture fibroblast: Hs343T | 0.887 ± 0.026 | 0.94 ± 0.023 | 0.7928 ± 0.0024 | 0.715 ± 0.0072 | 0.568 ± 0.0058 | 0.517 ± 0.017 | 0.441 ± 0.011 | 0.413 ± 0.021 | 0.401 ± 0.013
10 µM, coculture fibroblast: WS1 | 0.8961 ± 0.0046 | 0.765 ± 0.021 | 0.681 ± 0.099 | 0.591 ± 0.15 | 0.495 ± 0.17 | 0.462 ± 0.2 | 0.422 ± 0.2 | 0.4 ± 0.2 | 0.389 ± 0.19
100 µM, coculture fibroblast: C12385 | 0.691 ± 0.025 | 0.681 ± 0.044 | 0.658 ± 0.046 | 0.621 ± 0.044 | 0.594 ± 0.049 | 0.608 ± 0.053 | 0.586 ± 0.053 | 0.581 ± 0.052 | 0.577 ± 0.052
100 µM, coculture fibroblast: H6013 | 0.643 ± 0.024 | 0.613 ± 0.017 | 0.5861 ± 0.0046 | 0.548 ± 0.009 | 0.566 ± 0.008 | 0.5652 ± 0.00059 | 0.5411 ± 0.0014 | 0.5316 ± 0.0027 | 0.474 ± 0.0026
100 µM, coculture fibroblast: H6019 | 0.624 ± 0.032 | 0.579 ± 0.047 | 0.543 ± 0.056 | 0.499 ± 0.056 | 0.468 ± 0.059 | 0.467 ± 0.057 | 0.437 ± 0.058 | 0.432 ± 0.05 | 0.426 ± 0.05
100 µM, coculture fibroblast: H6076 | 0.757 ± 0.033 | 0.641 ± 0.03 | 0.617 ± 0.058 | 0.625 ± 0.065 | 0.559 ± 0.06 | 0.572 ± 0.071 | 0.558 ± 0.075 | 0.561 ± 0.078 | 0.596 ± 0.085
100 µM, coculture fibroblast: H6231 | 0.656 ± 0.031 | 0.634 ± 0.036 | 0.6 ± 0.062 | 0.64 ± 0.078 | 0.539 ± 0.077 | 0.539 ± 0.074 | 0.517 ± 0.073 | 0.513 ± 0.081 | 0.53 ± 0.079
100 µM, coculture fibroblast: HADF | 0.698 ± 0.026 | 0.716 ± 0.0072 | 0.678 ± 0.016 | 0.653 ± 0.014 | 0.664 ± 0.014 | 0.668 ± 0.015 | 0.646 ± 0.009 | 0.645 ± 0.013 | 0.5632 ± 0.002
100 µM, coculture fibroblast: HCFa | 0.689 ± 0.0083 | 0.6508 ± 0.0046 | 0.6185 ± 0.0026 | 0.60058 ± 0.00042 | 0.6132 ± 0.0014 | 0.6225 ± 0.0032 | 0.6046 ± 0.006 | 0.5959 ± 0.0017 | 0.5341 ± 0.0032
100 µM, coculture fibroblast: HCPF | 0.741 ± 0.01 | 0.639 ± 0.029 | 0.618 ± 0.045 | 0.658 ± 0.048 | 0.577 ± 0.048 | 0.563 ± 0.053 | 0.543 ± 0.054 | 0.54 ± 0.059 | 0.554 ± 0.059
100 µM, coculture fibroblast: HHSteC | 0.698 ± 0.02 | 0.6962 ± 0.0056 | 0.683 ± 0.0094 | 0.637 ± 0.015 | 0.651 ± 0.014 | 0.654 ± 0.011 | 0.607 ± 0.015 | 0.595 ± 0.019 | 0.537 ± 0.015
100 µM, coculture fibroblast: HMF | 0.734 ± 0.04 | 0.639 ± 0.036 | 0.622 ± 0.048 | 0.635 ± 0.048 | 0.555 ± 0.052 | 0.55 ± 0.06 | 0.544 ± 0.058 | 0.546 ± 0.064 | 0.571 ± 0.071
100 µM, coculture fibroblast: HPFa | 0.645 ± 0.013 | 0.618 ± 0.015 | 0.586 ± 0.014 | 0.526 ± 0.015 | 0.549 ± 0.02 | 0.556 ± 0.018 | 0.52 ± 0.024 | 0.519 ± 0.029 | 0.464 ± 0.021
100 µM, coculture fibroblast: HUF | 0.6868 ± 0.0047 | 0.621 ± 0.0075 | 0.5885 ± 0.0039 | 0.5459 ± 0.0033 | 0.5186 ± 0.0033 | 0.524 ± 0.0091 | 0.492 ± 0.0081 | 0.499 ± 0.0052 | 0.489 ± 0.0063
100 µM, coculture fibroblast: Hs5 | 0.801 ± 0.017 | 0.6908 ± 0.002 | 0.686 ± 0.019 | 0.685 ± 0.014 | 0.62 ± 0.012 | 0.6 ± 0.011 | 0.594 ± 0.015 | 0.576 ± 0.012 | 0.608 ± 0.013
100 µM, coculture fibroblast: Hs27A | 0.632 ± 0.015 | 0.676 ± 0.0094 | 0.6283 ± 0.0015 | 0.6143 ± 0.0039 | 0.62386 ± 0.00038 | 0.6285 ± 0.0038 | 0.6092 ± 0.00032 | 0.6039 ± 0.00085 | 0.529 ± 0.0071
100 µM, coculture fibroblast: Hs343T | 0.725 ± 0.019 | 0.612 ± 0.014 | 0.584 ± 0.028 | 0.59 ± 0.029 | 0.508 ± 0.041 | 0.506 ± 0.04 | 0.498 ± 0.043 | 0.499 ± 0.04 | 0.518 ± 0.041
100 µM, coculture fibroblast: WS1 | 0.62172 ± 0.00018 | 0.565 ± 0.0099 | 0.5339 ± 0.0038 | 0.4911 ± 0.002 | 0.4697 ± 0.00095 | 0.465 ± 0.0055 | 0.4485 ± 0.0041 | 0.454 ± 0.0062 | 0.446 ± 0.0092
